# Data as given in PubChem BioAssay AID1224827 (NIAID, 2016)
# Aim: 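Retest primary hits on a TNF reporter with six siRNAs per gene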 (follow-up of hits)
# Cells: RAW264.7 G9 mouse macrophage reporter clone
# Knock-down reagent: single siRNA against mouse genes, 100 nM siRNA
# Timing: siRNA for 2 days, then LPS about 16 h
# Treatment: bacterial lipopolysaccharide (LPS), 10 ng/ml, cells fixed after overnight (about 16 h) stimulation
# Read-out: 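TNF promoter reporter red fluorescence in nuclei, background subtracted, normalised per plate and to non-targeting control siRNA, as z-scores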
# Reading the numbers: TNF reporter z-score, mean and TNF reporter z-score: higher = stronger Tnf promoter reporter signal; gene median z, three same-vendor siRNAs: higher = stronger Tnf reporter signal for the gene
# Active means: 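An siRNA is called active when its mean z-score over replicates is at least +2 or at most -2; control wells get no call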
# The whole screen tested about 3,800 reagents; this is a random part of them. About 2,200 of them (57%) count as active. 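Active means a strong reporter change in either direction; calls are per siRNA, not per gene; qiagen siRNAs gave weaker effects.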 A number with no mark means an inactive call. Reagents against one gene are numbered here. No sequences are given here.
gene,reagent,"TNF reporter z-score, mean","gene median z, three same-vendor siRNAs","TNF reporter z-score, repeat 1","TNF reporter z-score, repeat 2"
"Tas2r108 (taste receptor, type 2, member 108)",1,0.694,-0.51,0.574,0.813
"Tas2r108 (taste receptor, type 2, member 108)",2,0.564,-0.51,-1.59,2.72
"Tas2r108 (taste receptor, type 2, member 108)",3,-3.47 (active),-0.51,-2.52,-4.43
"Tas2r108 (taste receptor, type 2, member 108)",4,6.64 (active),-0.846,11.5,1.78
"Tas2r108 (taste receptor, type 2, member 108)",5,-1.02,-0.846,0.765,-2.8
"Tas2r108 (taste receptor, type 2, member 108)",6,-2.85 (active),-0.846,-2.46,-3.25
Krr1 (KRR1 small subunit processome component),1,-0.668,-1.69,-0.843,-0.492
Krr1 (KRR1 small subunit processome component),2,-1.69,-1.69,-2.02,-1.36
Krr1 (KRR1 small subunit processome component),3,-3.3 (active),-1.69,-3.21,-3.4
Krr1 (KRR1 small subunit processome component),4,1.93,1.11,3.39,0.459
Krr1 (KRR1 small subunit processome component),5,1.06,1.11,1.76,0.36
Krr1 (KRR1 small subunit processome component),6,0.695,1.11,2.18,-0.793
Tmem116 (transmembrane protein 116),1,0.722,-1.98,0.393,1.05
Tmem116 (transmembrane protein 116),2,-2.4 (active),-1.98,-1.37,-3.43
Tmem116 (transmembrane protein 116),3,-3.6 (active),-1.98,-4.6,-2.6
Tmem116 (transmembrane protein 116),4,2.76 (active),-0.118,4.37,1.15
Tmem116 (transmembrane protein 116),5,-1,-0.118,-0.654,-1.35
Tmem116 (transmembrane protein 116),6,-0.641,-0.118,0.418,-1.7
Or4c112 (olfactory receptor family 4 subfamily C member 112),1,-2.1 (active),-3.14,-1.56,-2.63
Or4c112 (olfactory receptor family 4 subfamily C member 112),2,-3.32 (active),-3.14,-3.75,-2.89
Or4c112 (olfactory receptor family 4 subfamily C member 112),3,-3.99 (active),-3.14,-4.58,-3.39
Or4c112 (olfactory receptor family 4 subfamily C member 112),4,0.419,-0.89,1.2,-0.362
Or4c112 (olfactory receptor family 4 subfamily C member 112),5,-0.187,-0.89,1.87,-2.25
Or4c112 (olfactory receptor family 4 subfamily C member 112),6,-3.28 (active),-0.89,-5.13,-1.42

Copied from the list:
Under “TNF reporter z-score, repeat 2”, Tmem116 (transmembrane protein 116) #3 is entered as -2.6 (active)
Tmem116 (transmembrane protein 116) #1, TNF reporter z-score, repeat 1: 0.393
Entry for Tmem116 (transmembrane protein 116) #5 under “TNF reporter z-score, mean”: -1
Under “TNF reporter z-score, repeat 1”, Or4c112 (olfactory receptor family 4 subfamily C member 112) #5 shows 1.87
Tas2r108 (taste receptor, type 2, member 108) #5, TNF reporter z-score, mean: -1.02
Entry of Krr1 (KRR1 small subunit processome component) #2 in “gene median z, three same-vendor siRNAs”: -1.69

Further entries:
gene,reagent,"TNF reporter z-score, mean","gene median z, three same-vendor siRNAs","TNF reporter z-score, repeat 1","TNF reporter z-score, repeat 2"
Rag1 (recombination activating 1),1,4.27 (active),1.43,3.16,5.38
Rag1 (recombination activating 1),2,1.43,1.43,1.42,1.45
Rag1 (recombination activating 1),3,-5.67 (active),1.43,-5.74,-5.61
Rag1 (recombination activating 1),4,3.69 (active),1.28,5.45,1.93
Rag1 (recombination activating 1),5,2.83 (active),1.28,6.01,-0.344
Rag1 (recombination activating 1),6,0.423,1.28,0.634,0.212
Brd8 (bromodomain containing 8),1,-0.511,-1.88,-2.1,1.08
Brd8 (bromodomain containing 8),2,-1.37,-1.88,-1.08,-1.67
Brd8 (bromodomain containing 8),3,-3.69 (active),-1.88,-3.3,-4.08
Brd8 (bromodomain containing 8),4,1.39,0.267,2.48,0.305
Brd8 (bromodomain containing 8),5,1.17,0.267,2.11,0.228
Brd8 (bromodomain containing 8),6,-0.574,0.267,-0.341,-0.808
"Mapre3 (microtubule-associated protein, RP/EB family, member 3)",1,-0.358,-2.44,0.505,-1.22
"Mapre3 (microtubule-associated protein, RP/EB family, member 3)",2,-2.44 (active),-2.44,-2.74,-2.15
"Mapre3 (microtubule-associated protein, RP/EB family, member 3)",3,-4.61 (active),-2.44,-4.27,-4.95
"Mapre3 (microtubule-associated protein, RP/EB family, member 3)",4,2.05 (active),0.676,3.56,0.538
"Mapre3 (microtubule-associated protein, RP/EB family, member 3)",5,1.16,0.676,1.51,0.814
"Mapre3 (microtubule-associated protein, RP/EB family, member 3)",6,-2.93 (active),0.676,-4.39,-1.47
Ubqln2 (ubiquilin 2),1,-0.708,-2.77,-1.04,-0.378
Ubqln2 (ubiquilin 2),2,-3.13 (active),-2.77,-2.33,-3.93
Ubqln2 (ubiquilin 2),3,-3.62 (active),-2.77,-3.22,-4.03
Ubqln2 (ubiquilin 2),4,3.98 (active),-3.57,7.2,0.765
Ubqln2 (ubiquilin 2),5,-3.57 (active),-3.57,-3.64,-3.5
Ubqln2 (ubiquilin 2),6,-4.23 (active),-3.57,-4.55,-3.91
Tbck (TBC1 domain containing kinase),1,-1.42,-2.07,-0.627,-2.21
Tbck (TBC1 domain containing kinase),2,-1.52,-2.07,-1.93,-1.11
Tbck (TBC1 domain containing kinase),3,-4.03 (active),-2.07,-4.48,-3.58
"Prkab1 (protein kinase, AMP-activated, beta 1 non-catalytic subunit)",1,-1.25,-1.97,-1.76,-0.74
"Prkab1 (protein kinase, AMP-activated, beta 1 non-catalytic subunit)",2,-1.97,-1.97,-2,-1.94
"Prkab1 (protein kinase, AMP-activated, beta 1 non-catalytic subunit)",3,-4.95 (active),-1.97,-5,-4.91
"Prkab1 (protein kinase, AMP-activated, beta 1 non-catalytic subunit)",4,0.337,-1.67,2.07,-1.4
"Prkab1 (protein kinase, AMP-activated, beta 1 non-catalytic subunit)",5,-1.69,-1.67,-1.29,-2.1
"Prkab1 (protein kinase, AMP-activated, beta 1 non-catalytic subunit)",6,-2.19 (active),-1.67,-2.44,-1.94
